Laboratory results: article PMC11655674

Experiments:
[1] = target: T1, 6xHis-CerM (Cereibacter sphaeroides WS8N) (UniProt Q3J1N9); assay: EMSA; conditions: 50-200 ng CerM, 10 mM Tris pH 7.5, 1 mM EDTA, 0.1 M KCl, 0.1 mM DTT, 5% glycerol, 0.10 mg/mL BSA, 20 min room temperature, 50 ng DNA
T1 sequence (looked up): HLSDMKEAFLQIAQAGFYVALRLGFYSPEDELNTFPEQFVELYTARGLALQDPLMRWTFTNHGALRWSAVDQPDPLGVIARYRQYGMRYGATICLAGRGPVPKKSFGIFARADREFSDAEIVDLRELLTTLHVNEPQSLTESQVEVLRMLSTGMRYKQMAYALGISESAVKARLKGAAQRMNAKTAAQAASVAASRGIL

[2] = target: T2, GST-CerN (Cereibacter sphaeroides WS8N) (UniProt Q3J1P0); assay: EMSA; conditions: 10 mM Tris pH 7.5, 1 mM EDTA, 0.1 M KCl, 0.1 mM DTT, 5% glycerol, 0.10 mg/mL BSA, 20 min room temperature, 50 ng DNA, 50-200 ng CerM, 4% native gel in TAE pH 7.8, recombinant protein, residues 1-160, protein details: N-terminal GST (pGEX-4T-2), probe letters rebuilt from the primers and the genome
T2 sequence (looked up): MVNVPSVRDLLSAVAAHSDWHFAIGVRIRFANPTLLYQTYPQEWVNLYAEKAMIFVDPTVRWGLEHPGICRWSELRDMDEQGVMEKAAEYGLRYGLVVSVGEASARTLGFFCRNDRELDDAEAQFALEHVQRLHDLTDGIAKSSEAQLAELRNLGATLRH

[3] = 200 ng CerM, 4% native gel in TAE pH 7.8, recombinant protein, residues 21-219, probe letters rebuilt from the primers and the genome

“CCCGAATATTCGCGACTTGCAAAGTTTCGGCGGCGAATTCGCTGCAAATTGCATTGCAGAATGCAAAAGACCTCAGAGGCGAGTGACGTGTCTCCCGTGCTCCCGAGGGATGATCCACAGCGGCGGACGCCGAACGAACCCAGCTTGTATGAATGGACATATCCAAAAAGACAGGTTTGTTTCAAGACAAGTTTTTCTGGATGGAATTGGACGTCGGGCGGGGTTTTGGCACACAATATGCTTGTTATCCGGGCAGGGACAGCTGGAAGATTTACGGAGACATTTCATGAAACATCCCGTCGACGCCCAC (double strand) [14710 fragment A (310 bp)]”: binds ([1]; two complexes, 4% native gel in TAE pH 7.8, recombinant protein, residues 21-219, probe letters rebuilt from the primers and the genome); binds more weakly ([1]; with AHL from AM1 supernatant, 4% native gel in TAE pH 7.8, recombinant protein, residues 21-219, probe letters rebuilt from the primers and the genome); binds ([1]; with culture supernatant extract of delta-cerI (no AHL), 4% native gel in TAE pH 7.8, recombinant protein, residues 21-219, probe letters rebuilt from the primers and the genome). “CCCGAATATTCGCGACTTGCAAAGTTTCGGCGGCGAATTCGCTGCAAATTGCATTGCAGAATGCAAAAGACCTCAGAGGCGAGTGACGTGTCTCCCGTGCTCCCGAGGGATGATCCACAGCGGCGGACGCCGAACGAACCCAGCTTGTATGAATGGACATATCCAAAAAGACAGGTTTGTTTCAAGACAAGTTTTTCTGGATGGAATTGGACGTCGGGCGGGGTTTTGGCACACAATATGCTTGTTATCCGGGCAGGGACAGCTGGAAGATTTACGGAGACATTTCATGAAACATCCCGTCGACGCCCAC (double strand) [14710 fragment A (310 bp)]”: binds more weakly ([1]; with equimolar GST-CerN and AHL from AM1 supernatant (0.66 uL), 4% native gel in TAE pH 7.8, recombinant protein, residues 21-219, probe letters rebuilt from the primers and the genome); binds more weakly ([1]; with equimolar GST-CerN and synthetic 3OH-C14-HSL, 4% native gel in TAE pH 7.8, recombinant protein, residues 21-219, probe letters rebuilt from the primers and the genome); binds ([1]; with equimolar GST-CerN, no AHL, 4% native gel in TAE pH 7.8, recombinant protein, residues 21-219, probe letters rebuilt from the primers and the genome). “CCCGAATATTCGCGACTTGCAAAGTTTCGGCGGCGAATTCGCTGCAAATTGCATTGCAGAATGCAAAAGACCTCAGAGGCGAGTGACGTGTCTCCCGTGCTCCCGAGGGATGATCCACAGCGGCGGACGCCGAACGAACCCAGCTTGTATGAATGGACATATCCAAAAAGACAGGTTTGTTTCAAGACAAGTTTTTCTGGATGGAATTGGACGTCGGGCGGGGTTTTGGCACACAATATGCTTGTTATCCGGGCAGGGACAGCTGGAAGATTTACGGAGACATTTCATGAAACATCCCGTCGACGCCCAC (double strand) [14710 fragment A (310 bp)]”: no binding ([2]; no AHL); no binding ([2]; with AHL).
“CCCTCCCCTGATATCGGGAACTCGATCGCCTCGCGAAGCGTCTTCCGCACCTCGAAGGCAGGCCGGGACAGCCCCTGATCGGCACCCGCACCGCCGTCTGCGGCCGCGGCCCGACTGCAGGTTGCAGCTCAGCCCGATGGCCCGCAACCGGCGCGTGTAAACCGGGTCTTTTTAGACAGGTCGGGGTGGCGGATTGTTGACTCCATCATGTTGGCGTGAAATCTCACTATCAGGTGGGGCAAGAGGCTATTCGGATTAATCGTACAGCCTTTGGTATGGGTCTTCCGGTCGGTGGGCATTTTTACG (double strand) [17824 regulatory region (306 bp)]”: binds [1, 3].
“CGCCACATCCGTCGCCATCGCCACCAGCATGGTGCCCGCATGGAACATGCTTCTGCCTCCTTCGGAGAGCGGCTCCTGCGGCGCGCTCACGTCTCGATTTCGGAGAATTCCCCTCCTTCTGCAAGGGCGGAGCCATCCGCCGGAGGGCTGGCCTGTCGGTTTGGGCAGGTCGCGTTCTTCGCAGAAAGAGGTAAGAAGAACGCAGGGAAATTGCTTTGACTTCCCCCTGTTGCTCGTTCGCCGGAGATCCTCCATGCCGCAGTCCCATCACCGCGAAACCGCCCGTCTGGTTCGTCACCGGCGCTGGGTTCTCGGCCTGTCTC (double strand) [07465 regulatory region (323 bp)]”: binds [1, 3].
“GATATCAGATGCGCGAACCCAGAAGGGCGGTCAGATCGGTTTTTTCGGTCATGGGCGGGCTCCACGAAAGGCGGAAGGAACGGACATGAACACGCTGCTCGAACCAGGAATGCTGGTCCGGCATCCGGGGCAACCGGAGTGGGGGATGGGTCAGGTGCAATCCAACGTCAAAGGTCGGATCACGGTGAACTTCGAACACGCAGGCAAGGTCTTGATCGATGGCGGTCGGGTCGAGCTGCAACTTGTGCTTGATCTTCCGCACTGATCTAGCGACGTGTGGTTGCATATTTCAACCATGAATTGAGGGCATTTCGGCGCAGGGCGCCGCGCCTCCGGGGGCAGGAGCGACCCGGGCGACAGTTGCATCCGGCAGGGGCATTTCCTATGAAGCCCTGACCGTCCGGTGAGGGAGGCAAGGTCCGGGAATGATCGCCGACGACCCGCATCTGGAACTGAGGCTCGCCGCGTCCGAGCGCGATCTGCGCGCGGCCCAGCGGCTGCGCTATACGGTCTTCGTCGAGGAGCTCGGCGGCGACGGGGATCTCGTCGACCATGCAGAGCGGCTCGAGCGCGATGAGTTCGACGATCTCTGCGACCATCTCCTGCTGGATCC (double strand) [chpT control region (603 bp)]”: no binding [1, 3].
“GCCTGCAGCATGAGCCCCCGGGCGATCAGCACGATGGCCGCGAAGGTGAGCGCCACCATGGCGGCTTCGAGCCGCATGTCGAGGTCGGAGGCGAAGAGAGCGGTCACCAGGGCCCCGCCGGCCACGGCGAGCAGAAGCCAGTGCCTTGAGCGGAGACCTTCCGCCGCCCCCACGAGATCTGCTGACTGCCTGTGCACTGACATCCCCGAGCCGGATTCGCCCCGCGGACATTCGGCCCTGAAATCGTTAAGCACTGTTTAATCTGCGCGAGGATCCAGCTCGCAAAGCCCGGAAACTCAGCCGTTTCTCTGCAACAGGTCGAGGAAGAAGCCGTCGCCGCCATCGAGAGGGGTCAGTCGCAGCTGGTGCACCCGCGTCCAGCCGGAGGTCCGCTCGAGGAAAGCTCTAGACC (double strand) [cckA control region (396 bp)]”: no binding [1, 3].
“GCGAGCTCGTTTCCGGTCTTGGCGATTTGGGCCCGTCTCCTCGGAGGCGGGCCTTTTTCTTTTTGGCGTCATGGACTTTTGTCCGATGGCCAAAGGGATGGGATTACCGCAAAAGGCAGTTGCAGACAGGCGGATTCACCATTGCCAAAAAACGTGTTTGCTTCATGAGATGGTTGTCATAAAGCTAGCTTTGCGACGGCGTGGGGATCGCCGAATATCGAGCTTGTCCATCCCAAGCGATTTGCTGTGCACTGTTTCCCGAATGACGATAAATTCAAAAATCGATCTTGAAATCAGTCAACTCCGGCGCATGGCCACGGCAGGCTACTTTCTGGGCCTGCACGAGCTCGC (double strand) [gtaR regulatory region (337 bp)]”: binds more weakly [1, 3].

No signal at the amounts used counts as a negative. Tags and fusion partners may be left off the protein sequences shown. For some of these results: A weaker result is weaker than the reference pair of the same experiment. For some of these results: Construct, isoform or probe ends are uncertain for at least one entry.
